Laboratory results reported in patent US20060252670A1, “Method of reducing drug-induced adverse side effects in a patient” (Intercept Pharmaceuticals Inc., priority 2004, published 2006).

System: liver fibrosis induced by porcine serum
Test: Liver fibrosis induced by 8-week porcine serum administration to rats: 6-ECDCA, rosiglitazone and combination
Type: in vivo, rat
Conditions: 8 weeks, mean ± SE
Protocol: To investigate whether 6-ECDCA was effective in regulating PPARγ expression, porcine serum-administered rats (6-8 each group) were randomized to receive 1 and 3 mg/kg 6-ECDCA via gavage 5 times a week. Control rats were administered 3% carboxy-methyl cellulose (CMC) by gavage. At the end of the study, rats were sacrificed under anaesthesia with sodium pentobarbital (50 mg/kg, i.p.) and terminally bled via cardiac puncture. The liver was removed for examination and blood samples were taken.
Groups and duration of treatment are described in Table 1 below. Animals were followed for 8 weeks.
Collagen surface density was quantified using a computerized image analysis system (Image Acquisition System Ver. 005, Delta Sistemi, Rome, Italy) (see Fiorucci et al., supra). Hepatic and urinary content of hydroxyproline were determined by HPLC (LC Varian Prostar HPLC, Varian, Rome, Italy) as described in Fiorucci et al. (supra). The ANOVA followed by Dunnett or Bonferroni correction for multiple comparison were applied when appropriate during statistical analysis. EC50 were calculated using Prism III (Graphpad Software. Inc., San Diego, Calif.).

## CC[C@H]1[C@@H](O)[C@@H]2[C@H](CC[C@]3(C)[C@@H]([C@H](C)CCC(=O)O)CC[C@@H]23)[C@@]2(C)CC[C@@H](O)C[C@@H]12 [6-ECDCA]
Oral 1 mg/kg (each drug)
  Final b.w.: 357.3 ± 9.8 g
Oral 3 mg/kg (each drug)
  Final b.w.: 352.4 ± 10.3 g
